From paper PMC4917652

Molecular target: Histone H1 (linker subunit)
Test: ELISA; solid-phase binding assay: 1 μg/ml of each histone subunit coated on 96-well plates in 50 mM NaHCO3/Na2CO3 buffer, pH 9.6, 12 h at 4 °C; blocked with PBS containing 5% BSA; 1 μg/ml biotinylated Clu, SAP, CRP or HSA for 2 h; HRP-labeled streptavidin; OD at 492 nm; both purified

binding: binds
B1: C-reactive protein (CRP), biotinylated (protein, UniProt P02741 19-224)
chain: QTDMSRKAFVFPKESDTSYVSLKAPLTKPLKAFTVCLHFYTELSSTRGYSIFSYATKRQDNEILIFWSKDIGYSFTVGGSEILFEVPEVTVAPVHICTSWESASGIVEFWVDGKPRVRKSLKKGYTVGAEASIILGQEQDSFGGNFEGSQSLVGDIGNVNMWDFVLSPDEINTIYLGGPFSPNVLNWRALKYEVQGEVFTKPQLWP
modifications: biotinylated (EZ-Link Sulfo-NHS-LC-Biotin Kit); sites not stated

No constants are given. Whether binding was seen depends on the method and setting. A result given as binding can be weak or reduced; the word gives no strength.
